These are yes or no findings as the source states them, for the method shown. For part of these data: In cells and extracts the contact can be indirect. Some entries that bind do so weakly or less than the wild type. For part of these data: Tags and fused reporters may be left off the sequences shown.

Sequences of proteins named here, by UniProt entry; tags and fusion partners are left off. A change or cut given only in a name is not applied to a line headed by its entry.
UniProt P53104: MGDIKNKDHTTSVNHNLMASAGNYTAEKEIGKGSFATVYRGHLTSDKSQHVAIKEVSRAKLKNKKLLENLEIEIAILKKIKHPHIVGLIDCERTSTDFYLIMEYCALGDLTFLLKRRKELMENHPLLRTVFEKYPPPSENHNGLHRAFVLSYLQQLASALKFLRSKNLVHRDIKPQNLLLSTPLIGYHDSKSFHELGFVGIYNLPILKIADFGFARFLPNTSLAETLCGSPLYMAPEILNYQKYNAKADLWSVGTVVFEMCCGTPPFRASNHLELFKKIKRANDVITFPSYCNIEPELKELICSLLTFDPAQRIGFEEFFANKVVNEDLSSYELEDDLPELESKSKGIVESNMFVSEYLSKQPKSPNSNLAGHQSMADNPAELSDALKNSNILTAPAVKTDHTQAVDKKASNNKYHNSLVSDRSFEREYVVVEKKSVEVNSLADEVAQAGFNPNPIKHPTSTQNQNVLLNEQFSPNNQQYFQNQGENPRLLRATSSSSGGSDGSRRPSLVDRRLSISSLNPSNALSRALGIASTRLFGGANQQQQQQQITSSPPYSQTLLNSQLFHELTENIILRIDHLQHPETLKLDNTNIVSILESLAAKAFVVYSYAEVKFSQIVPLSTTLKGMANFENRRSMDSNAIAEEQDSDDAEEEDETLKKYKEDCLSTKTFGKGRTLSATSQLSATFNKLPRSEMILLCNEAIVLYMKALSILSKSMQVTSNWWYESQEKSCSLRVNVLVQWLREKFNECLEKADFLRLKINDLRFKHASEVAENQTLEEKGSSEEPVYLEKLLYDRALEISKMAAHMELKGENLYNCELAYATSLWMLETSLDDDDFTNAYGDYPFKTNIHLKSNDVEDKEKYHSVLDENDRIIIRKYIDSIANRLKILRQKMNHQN

Assay [1] has as its target T1, Atg9^core (Atg9^281–779), reconstituted in proteoliposomes (S. cerevisiae) (UniProt Q12142).
T1 sequence: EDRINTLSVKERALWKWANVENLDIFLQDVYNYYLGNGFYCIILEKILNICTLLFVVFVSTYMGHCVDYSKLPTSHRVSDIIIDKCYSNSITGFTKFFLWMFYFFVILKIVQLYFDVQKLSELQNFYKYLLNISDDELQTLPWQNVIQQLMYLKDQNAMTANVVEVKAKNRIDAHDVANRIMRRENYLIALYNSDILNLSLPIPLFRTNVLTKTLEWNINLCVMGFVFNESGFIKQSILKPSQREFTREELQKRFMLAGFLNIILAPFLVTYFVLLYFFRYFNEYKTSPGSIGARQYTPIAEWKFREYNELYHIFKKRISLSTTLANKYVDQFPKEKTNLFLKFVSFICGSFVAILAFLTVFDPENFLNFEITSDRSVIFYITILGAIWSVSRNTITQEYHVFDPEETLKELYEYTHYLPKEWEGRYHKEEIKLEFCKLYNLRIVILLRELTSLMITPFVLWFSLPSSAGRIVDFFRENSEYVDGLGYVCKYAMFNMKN
Description: co-floatation with proteoliposomes; Atg9 variant held in proteoliposomes (synthetic lipids without PI), partner in solution at 1:1, Nycodenz step gradient, 650,000g 2 h at 4 °C, 25 mM HEPES pH 7.0, 100 mM NaCl; top fraction read by SDS–PAGE or α-myc immunoblot; both purified. A general note: In western blotting, separated proteins are transferred to a membrane and probed.

For assay [2], the target named is T2, Atg17 (S. cerevisiae) (UniProt Q06410).
T2 sequence: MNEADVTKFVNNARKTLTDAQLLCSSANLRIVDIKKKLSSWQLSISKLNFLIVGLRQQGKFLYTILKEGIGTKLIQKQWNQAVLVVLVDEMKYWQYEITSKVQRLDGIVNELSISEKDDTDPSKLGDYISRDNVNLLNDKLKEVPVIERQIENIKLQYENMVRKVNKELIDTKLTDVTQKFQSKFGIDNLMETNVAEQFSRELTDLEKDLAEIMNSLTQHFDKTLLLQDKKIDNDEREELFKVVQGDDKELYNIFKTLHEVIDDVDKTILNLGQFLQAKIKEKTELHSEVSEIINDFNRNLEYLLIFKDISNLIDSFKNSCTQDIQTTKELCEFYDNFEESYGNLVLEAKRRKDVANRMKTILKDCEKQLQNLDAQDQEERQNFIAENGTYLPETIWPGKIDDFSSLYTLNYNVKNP
The assay can be described thus: co-purification of co-expressed proteins (Ni-NTA, SEC); co-expression in E. coli Rosetta (Atg17, Atg31 and Atg29 from pST39 with the tag on Atg17; Atg31 with Atg29), Ni-NTA and SEC.

In assay [3] the target is T3, Atg31 (S. cerevisiae) (UniProt Q12421).
T3 sequence: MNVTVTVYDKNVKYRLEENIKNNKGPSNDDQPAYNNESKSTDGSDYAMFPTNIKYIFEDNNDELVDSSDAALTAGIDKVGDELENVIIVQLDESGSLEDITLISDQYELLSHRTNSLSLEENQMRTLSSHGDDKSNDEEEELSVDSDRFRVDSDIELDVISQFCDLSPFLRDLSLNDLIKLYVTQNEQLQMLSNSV
Described as above.

Assay [4] addresses T4, Atg17^GFP in yeast (S. cerevisiae) (UniProt Q06410).
T4 sequence: T2 sequence
Description: co-IP; GFP-Trap-M beads, yeast lysate (25 mM Tris-HCl pH 7.2, 150 mM NaCl, 0.2% NP-40), 2 h at 4 °C; α-HA immunoblot.

In assay [5] the target is T5, Atg17^myc in yeast (S. cerevisiae) (UniProt Q06410).
T5 sequence: T2 sequence
Description: co-IP; the pair that is blocked in a11: α-myc IP of Atg17^myc from lysates of cells starved for 2 h, Atg9^HA by α-HA immunoblot.

Assay [6] has as its target T5, Atg17^myc in yeast (S. cerevisiae). The assay can be described thus: co-IP; α-myc antibody on magnetic protein A beads, yeast lysate (25 mM Tris-HCl pH 7.2, 150 mM NaCl, 0.2% NP-40), 2 h at 4 °C; vegetative cells and cells starved for 2 h; wild-type, atg1Δ and atg13Δ cells; α-HA immunoblot.
Assay [7] deals with T6, GST-Atg31^160–196 (S. cerevisiae) (UniProt Q12421).
T6 sequence: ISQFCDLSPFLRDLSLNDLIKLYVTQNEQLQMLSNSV
Description: pull-down; 10 μg GST-Atg31^160–196 incubated with yeast cell lysate, Glutathione Sepharose 4B beads, washed with lysis buffer with an additional 100 mM NaCl; only the target purified.

On to “Atg1^monoPC with myc-tagged Atg17^1–354 (from UniProt P53104 1-897; Q06628 1-738; Q06410 1-354; Q12421 1-196; Q12092 1-213) (complex)”, for which the binding result in assay [1] was “binds weakly”.

B1: Atg29 (protein, UniProt Q12092 1-213)
chain: MIMNSTNTVVYIKVKGRRPQGFLDPPKFEWNGTKERQLWTMVSNLNYSQDQIDWQNLSKIFETPEFFLKKRTYKLFAEHLELLQLQLEKKRDLEKYSNDQVNEGMSDLIHKYTPTLQNDNLLNVSASPLTTERQDSEEVETEVTNEALQHLQTSKILNIHKKTSDSENKPNDKLDKDGINKEMECGSSDDDLSSSLSVSKSALEEALMDRLQF
With B1, the binding entry in assay [2] and in assay [3] was “binds” throughout.

B2: Atg17^monoTC with myc-tagged Atg17^1–354 (complex, UniProt Q06410 1-354; Q12421 1-196; Q12092 1-213)
chain 1: MNEADVTKFVNNARKTLTDAQLLCSSANLRIVDIKKKLSSWQLSISKLNFLIVGLRQQGKFLYTILKEGIGTKLIQKQWNQAVLVVLVDEMKYWQYEITSKVQRLDGIVNELSISEKDDTDPSKLGDYISRDNVNLLNDKLKEVPVIERQIENIKLQYENMVRKVNKELIDTKLTDVTQKFQSKFGIDNLMETNVAEQFSRELTDLEKDLAEIMNSLTQHFDKTLLLQDKKIDNDEREELFKVVQGDDKELYNIFKTLHEVIDDVDKTILNLGQFLQAKIKEKTELHSEVSEIINDFNRNLEYLLIFKDISNLIDSFKNSCTQDIQTTKELCEFYDNFEESYGNLVLEAKRRKD
chain 2: T3 sequence
chain 3: B1 chain
For B2, the binding result in assay [1] is on record as “binds weakly”.

B3: Atg31 (protein, UniProt Q12421 1-196)
chain: T3 sequence
As to B3, in assay [2], the binding entry is listed as “binds”.

B4: HA-tagged Atg9^core in yeast (pRS316-Atg9^core-3xHA) (domain or fragment, UniProt Q12142 281-779)
chain: T1 sequence
Consider B4, for which, in assay [4], the binding entry was “binds”.

B5: Atg9^WT, HA-tagged, in yeast (pTL58-Atg9–3xHA) (protein, UniProt Q12142 1-997)
chain: MERDEYQLPNSHGKNTFLSRIFGLQSDEVNPSLNSQEMSNFPLPDIERGSSLLHSTNDSREDVDENDLRVPESDQGTSTEEEDEVDEEQVQAYAPQISDGLDGDHQLNSVTSKENVLETEKSNLERLVEGSTDDSVPKVGQLSSEEEEDNEFINNDGFDDDTPLFQKSKIHEFSSKKSNTIEDGKRPLFFRHILQNNRPQRDTQKLFTSSNAIHHDKDKSANNGPRNINGNQKHGTKYFGSATQPRFTGSPLNNTNRFTKLFPLRKPNLLSNISVLNNTPEDRINTLSVKERALWKWANVENLDIFLQDVYNYYLGNGFYCIILEKILNICTLLFVVFVSTYMGHCVDYSKLPTSHRVSDIIIDKCYSNSITGFTKFFLWMFYFFVILKIVQLYFDVQKLSELQNFYKYLLNISDDELQTLPWQNVIQQLMYLKDQNAMTANVVEVKAKNRIDAHDVANRIMRRENYLIALYNSDILNLSLPIPLFRTNVLTKTLEWNINLCVMGFVFNESGFIKQSILKPSQREFTREELQKRFMLAGFLNIILAPFLVTYFVLLYFFRYFNEYKTSPGSIGARQYTPIAEWKFREYNELYHIFKKRISLSTTLANKYVDQFPKEKTNLFLKFVSFICGSFVAILAFLTVFDPENFLNFEITSDRSVIFYITILGAIWSVSRNTITQEYHVFDPEETLKELYEYTHYLPKEWEGRYHKEEIKLEFCKLYNLRIVILLRELTSLMITPFVLWFSLPSSAGRIVDFFRENSEYVDGLGYVCKYAMFNMKNIDGEDTHSMDEDSLTKKIAVNGSHTLNSKRRSKFTAEDHSDKDLANNKMLQSYVYFMDDYSNSENLTGKYQLPAKKGYPNNEGDSFLNNKYSWRKQFQPGQKPELFRIGKHALGPGHNISPAIYSTRNPGKNWDNNNNGDDIKNGTNNATAKNDDNNGNNDHEYVLTESFLDSGAFPNHDVIDHNKMLNSNYNGNGILNKGGVLGLVKEYYKKSDVGR
Turning to B5, the binding entry in assay [5] and in assay [6] was “binds” each time.

B6: Atg17^myc in yeast (protein, UniProt Q06410 1-417)
chain: T2 sequence
Take B6: the binding result in assay [7] was “binds”.
